Data: patent US9867372B2, “Tetrazolinone compound and use of same” (SUMITOMO CHEMICAL COMPANY, LIMITED, priority 2013, dated 2018)
Some results were stated once for a whole list of compounds, not compound by compound.

test system: cucumber powdery mildew fungus (Sphaerotheca fuliginea, a QoI-resistant strain, cytochrome b position 143 mutated from glycine to alanine); assay type: in vivo; details: 200 ppm, QoI-resistant strain (Test Example 2, Comparative Example 2)

SMILES | area of lesion spots on the treated plant relative to that on an untreated plant
Cc1cccc(-n2nnn(C)c2=O)c1COc1cccc(-c2ccccc2)c1 [compound 40] | ≤ 30%
Cc1cccc(-n2nnn(C)c2=O)c1COc1cccc(-c2cc(F)c(F)c(F)c2)n1 [compound 61] | ≤ 30%
COc1cc(F)ccc1-c1cccc(OCc2c(C)cccc2-n2nnn(C)c2=O)c1 [compound 180] | ≤ 30%
Cc1cccc(-n2nnn(C)c2=O)c1COc1cccc(-c2cnn(C)c2)c1 [compound 210] | ≤ 30%
COc1cccc(-n2nnn(C)c2=O)c1COc1cc(-c2ccc(Cl)cc2)ccc1C [compound 35] | ≤ 30%
Cc1cccc(-n2nnn(C)c2=O)c1COc1cccc(-c2ccsc2)n1 [compound 174] | ≤ 30%
COc1cccc(-c2cc(C)cc(OCc3c(C)cccc3-n3nnn(C)c3=O)c2)c1 [compound 148] | ≤ 30%
COc1ccc(-c2ccnc(OCc3c(C)cccc3-n3nnn(C)c3=O)n2)cc1 [compound 100] | ≤ 30%
Cc1ccc(-c2cccc(OCc3c(C)cccc3-n3nnn(C)c3=O)n2)s1 [compound 176] | ≤ 30%
Cc1cccc(-n2nnn(C)c2=O)c1COc1cccc(-c2cccs2)c1 [compound 167] | ≤ 30%
Cc1cccc(-n2nnn(C)c2=O)c1COc1cccc(-c2ccccc2)c1F [compound 110] | ≤ 30%
COc1ccc(-c2cccc(OCc3c(C)cccc3-n3nnn(C)c3=O)n2)c(F)c1 [compound 64] | ≤ 30%
COc1ccccc1-c1ccnc(OCc2c(C)cccc2-n2nnn(C)c2=O)n1 [compound 101] | ≤ 30%
Cc1cccc(-n2nnn(C)c2=O)c1COc1cccc(-c2ccc(S(C)(=O)=O)cc2)n1 [compound 107] | ≤ 30%
COc1cc(F)ccc1-c1cccc(OCc2c(C)cccc2-n2nnn(C)c2=O)n1 [compound 169] | ≤ 30%
COc1cc(Cl)ccc1-c1cccc(OCc2c(C)cccc2-n2nnn(C)c2=O)n1 [compound 172] | ≤ 30%
Cc1cccc(-n2nnn(C)c2=O)c1COc1cccc(-c2ccc(Cl)s2)c1 [compound 209] | ≤ 30%
Cc1cc(OCc2c(C)cccc2-n2nnn(C)c2=O)cc(-c2ccccc2)c1 [compound 143] | ≤ 30%
COc1ccc(-c2nccc(OCc3c(C)cccc3-n3nnn(C)c3=O)n2)cc1 [compound 92] | ≤ 30%

same assay, conditions: 500 ppm, QoI-resistant strain (Test Example 14)

SMILES | area of lesion spots on the treated plant relative to that on an untreated plant
COc1cccc(-n2nnn(C)c2=O)c1COc1cc(-c2cccc(Cl)c2)ccc1C [compound 37] | ≤ 30%
Cc1cccc(-n2nnn(C)c2=O)c1COc1ccnc(-c2ccc(F)cc2)n1 [compound 91] | ≤ 30%
Cc1cccc(-n2nnn(C)c2=O)c1COc1cccc(-c2ccccn2)c1 [compound 164, 1-methyl-4-[3-methyl-2-(3-pyridin-2-yl-phenoxymethyl)phenyl]-1,4-dihydrotetrazol-5-one] | ≤ 30%
Cc1cccc(-n2nnn(C)c2=O)c1COc1nccc(-c2ccc(Cl)cc2)n1 [compound 103] | ≤ 30%
COc1cccc(-c2cc(OCc3c(C)cccc3-n3nnn(C)c3=O)ccc2C)c1 [compound 116] | ≤ 30%
Cn1nnn(-c2cccc(Cl)c2COc2cccc(-c3ccc(F)cc3)n2)c1=O [compound 68] | ≤ 30%
Cc1cccc(-n2nnn(C)c2=O)c1COc1cccc(-c2cccc(F)c2)n1 [compound 8] | ≤ 30%
Cc1cccc(-n2nnn(C)c2=O)c1COc1cccc(-c2ccccc2)n1 [compound 1, 1-methyl-4-[3-methyl-2-(6-phenylpyridin-2-yloxymethyl)phenyl]-1,4-dihydrotetrazol-5-one] | ≤ 30%
Cc1cccc(-n2nnn(C)c2=O)c1COc1cc(-c2ccc(F)cc2)ccc1Cl [compound 132] | ≤ 30%
Cc1cccc(-n2nnn(C)c2=O)c1COc1ccc(F)c(-c2ccc(F)cc2)c1 [compound 154] | ≤ 30%
Cc1cccc(-n2nnn(C)c2=O)c1COc1cccc(C2=CCCCC2)c1 [compound 102] | ≤ 30%
Cc1cccc(-n2nnn(C)c2=O)c1COc1ccnc(-c2cccc(Cl)c2)n1 [compound 97] | ≤ 30%
Cc1cccc(-n2nnn(C)c2=O)c1COc1cccc(-c2ccc3ocnc3c2)c1 [compound 159] | ≤ 30%
Cc1cccc(-n2nnn(C)c2=O)c1COc1cccc(-c2ccc(Br)cc2)n1 [compound 23] | ≤ 30%
Cc1cccc(-n2nnn(C)c2=O)c1COc1cccc(-c2ccc(Oc3ccccc3)cc2)n1 [compound 72] | ≤ 30%
COc1ccc(-c2ncnc(OCc3c(C)cccc3-n3nnn(C)c3=O)n2)cc1 [compound 109] | ≤ 30%
Cc1cccc(-n2nnn(C)c2=O)c1COc1cncc(-c2cccc(Cl)c2)c1 [compound 77] | ≤ 30%
COc1ccc(OCc2c(C)cccc2-n2nnn(C)c2=O)cc1-c1ccc(F)cc1 [compound 141] | ≤ 30%
Cc1cccc(-n2nnn(C)c2=O)c1COc1cccc(-c2ccc3ncccc3c2)c1 [compound 157] | ≤ 30%
Cc1cccc(-n2nnn(C)c2=O)c1COc1nccc(-c2ccccc2)n1 [compound 99] | ≤ 30%
Cc1cccc(-n2nnn(C)c2=O)c1COc1cccc(-c2ccc3c(c2)OCO3)c1 [compound 60] | ≤ 30%

SMILES | area of lesion spots on the treated plant relative to that on an untreated plant
COc1ccccc1-c1cc(OCc2c(C)cccc2-n2nnn(C)c2=O)ccc1OC [compound 144] | ≤ 30%
CCc1cccc(-n2nnn(C)c2=O)c1COc1cccc(-c2ccc(F)cc2)n1 [compound 65] | ≤ 30%
COc1cccc(-n2nnn(C)c2=O)c1COc1cccc(-c2ccc(F)cc2)n1 [compound 70] | ≤ 30%
Cc1cccc(-n2nnn(C)c2=O)c1COc1cccc(-c2ccccc2Cl)c1 [compound 53] | ≤ 30%
COc1cnc(-c2cccc(OCc3c(C)cccc3-n3nnn(C)c3=O)c2)nc1 [compound 163, 1-{2-[3-(5-methoxypyrimidin-2-yl)phenoxymethyl]-3-methylphenyl}-4-methyl-1,4-dihydrotetrazol-5-one] | ≤ 30%
Cc1ccc(OCc2c(C)cccc2-n2nnn(C)c2=O)cc1-c1ccc(Cl)cc1 [compound 122] | ≤ 30%
Cn1nnn(-c2cccc(C3CC3)c2COc2cccc(-c3ccc(F)cc3)n2)c1=O [compound 66] | ≤ 30%
COc1cccc(-c2cccc(OCc3c(C)cccc3-n3nnn(C)c3=O)c2)c1 [compound 50] | ≤ 30%
COc1ccc(-c2cccc(OCc3c(C)cccc3-n3nnn(C)c3=O)c2)nn1 [compound 165, 1-{2-[3-(3-methoxypyridazin-6-yl)phenoxymethyl]-3-methylphenyl}-4-methyl-1,4-dihydrotetrazol-5-one] | ≤ 30%
Cc1cccc(-n2nnn(C)c2=O)c1COc1ccnc(-c2ccc(Cl)cc2)n1 [compound 93] | ≤ 30%
Cc1cccc(-n2nnn(C)c2=O)c1COc1cccc(-c2ccc3c(c2)OCO3)n1 [compound 74] | ≤ 30%
COc1cccc(-c2cc(OCc3c(C)cccc3-n3nnn(C)c3=O)ccc2F)c1 [compound 149] | ≤ 30%
COc1ccccc1-c1nccc(OCc2c(C)cccc2-n2nnn(C)c2=O)n1 [compound 94] | ≤ 30%
Cc1cccc(-n2nnn(C)c2=O)c1COc1cccc(C2=CCCCC2)n1 [compound 18] | ≤ 30%
COc1cccc(-c2cccc(OCc3c(C)cccc3-n3nnn(C)c3=O)n2)c1 [compound 15] | ≤ 30%
Cc1cccc(-n2nnn(C)c2=O)c1COc1cccc(-c2cccc(Cl)c2)c1 [compound 55] | ≤ 30%
COc1ccc(-c2ccc(F)c(OCc3c(C)cccc3-n3nnn(C)c3=O)c2)cc1 [compound 131] | ≤ 30%
Cc1cccc(-n2nnn(C)c2=O)c1COc1cccc(-c2ccc(OC(F)(F)F)cc2)n1 [compound 11] | ≤ 30%
Cc1cccc(-n2nnn(C)c2=O)c1COc1cc(-c2ccc(F)cc2)ccc1F [compound 124] | ≤ 30%
COc1ccc(-c2cccc(OCc3c(C4CC4)cccc3-n3nnn(C)c3=O)n2)cc1 [compound 13] | ≤ 30%
